Measurements reported in PubChem BioAssay AID1259254 (NCATS, 2017)
The whole screen tested about 59,000 reagents; below is a part drawn at random. Of all reagents, about 1,550 (2.6%) got an active call. 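G2 share is only a proxy for re-replication; each gene was hit by three separate siRNAs, and active genes were retested.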 Reagents against one gene are numbered here. Further read-outs or replicates are left out here. Reagent sequences are not shown. Not given: the amount of reagent.

Screen: 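Finding genes that stop cells copying their DNA twice in one cycle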 (primary screen)
System: human HCT116 colorectal cancer cells
Knock-down reagent: single siRNA against human genes
Timing: 3 days
Measurement: 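Nuclei stained with Hoechst and imaged; cell-cycle phase assigned by DNA content; G2 share scaled per plate, non-targeting siRNA 0%, GMNN siRNA 100%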
Direction: G2 robust z-score: higher = more G2 cells, more excess DNA replication
Rule for the call: 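An siRNA counts as active if its G2 robust z-score lies at least 5 MADs above the screen median; here such calls match roughly 38% of GMNN control or more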

G2 robust z-score, by gene symbol and reagent
NDRG4 (NDRG family member 4): #1 0.0116 inactive; #2 -0.896 inactive; #3 5.51 active
TKFC (triokinase and FMN cyclase): #1 -0.827 inactive; #2 0.208 inactive; #3 0.295 inactive
RPS18P12 (ribosomal protein S18 pseudogene 12): #1 -0.445 inactive; #2 -0.643 inactive; #3 -1.15 inactive
CD300LB (CD300 molecule like family member b): #1 -1.55 inactive; #2 -0.894 inactive; #3 -1.14 inactive
MRPL43 (mitochondrial ribosomal protein L43): #1 -0.784 inactive; #2 -0.756 inactive; #3 -1.06 inactive
NIFK (nucleolar protein interacting with the FHA domain of MKI67): #1 1.47 inactive; #2 2.82 inactive; #3 4.84 inactive
GSTA12P (glutathione S-transferase alpha 12, pseudogene): #1 -0.207 inactive; #2 -0.099 inactive; #3 -0.802 inactive
ZNF395 (zinc finger protein 395): #1 -1.02 inactive; #2 -0.653 inactive; #3 0.522 inactive
HOXA11 (homeobox A11): #1 -0.872 inactive; #2 -1.03 inactive; #3 0.108 inactive
MEGF8 (multiple EGF like domains 8): #1 0.314 inactive; #2 -1.62 inactive; #3 -0.384 inactive
FUCA1 (alpha-L-fucosidase 1): #1 0.822 inactive; #2 -0.763 inactive; #3 -0.521 inactive
COL4A2 (collagen type IV alpha 2 chain): #1 -0.873 inactive; #2 0.354 inactive; #3 -0.17 inactive
WDR17 (WD repeat domain 17): #1 0.255 inactive; #2 0.238 inactive; #3 2.1 inactive
PCSK5 (proprotein convertase subtilisin/kexin type 5): #1 -0.714 inactive; #2 -0.0181 inactive; #3 -0.382 inactive
NEURL4 (neuralized E3 ubiquitin protein ligase 4): #1 6.51 active; #2 1.31 inactive; #3 -0.824 inactive
OR51S1 (olfactory receptor family 51 subfamily S member 1): #1 0.483 inactive; #2 -0.304 inactive; #3 -0.876 inactive
LRIG2 (leucine rich repeats and immunoglobulin like domains 2): #1 -0.39 inactive; #2 -0.575 inactive; #3 -0.736 inactive
ASPRV1 (aspartic peptidase retroviral like 1): #1 -0.473 inactive; #2 2.07 inactive; #3 -1.06 inactive
IRF2BPL (interferon regulatory factor 2 binding protein like): #1 -0.509 inactive; #2 -1.01 inactive; #3 1.52 inactive
PITX3 (paired like homeodomain 3): #1 -0.976 inactive; #2 2.61 inactive; #3 0.0943 inactive
UTP4 (UTP4 small subunit processome component): #1 1.23 inactive; #2 0.594 inactive; #3 0.223 inactive
MYO7B (myosin VIIB): #1 1.39 inactive; #2 -0.0742 inactive; #3 2.2 inactive
PPP1R18 (protein phosphatase 1 regulatory subunit 18): #1 -0.502 inactive; #2 -0.481 inactive; #3 0.376 inactive

Called active (from the list above):
G2 robust z-score, by gene symbol and reagent
NDRG4 (NDRG family member 4): #3 5.51 active
NEURL4 (neuralized E3 ubiquitin protein ligase 4): #1 6.51 active
